# Measurements: paper PMC9861623, “New Ferulic Acid and Amino Acid Derivatives with Increased Cosmeceutical and Pharmaceutical Potential” (Pharmaceutics, 2022)
# Test: Total polyphenols content (Folin–Ciocalteu) of acceptor fluid after 24 h permeation
# Design: species or system pig
# Conditions: after 24 h penetration
Compound,Total Polyphenol in the acceptor fluid (emulsion),Total Polyphenol in the acceptor fluid (ethanol solution),Total Polyphenol in the acceptor fluid (hydrogel)
"CCCOC(=O)[C@@H](N)CC(C)C.COc1cc(/C=C/C(=O)O)ccc1O [LPr[FA], L-leucine propyl ester ferulate]",0.045 ± 0.004 a mmol GA dm^−3,0.125 ± 0.002 mmol GA dm^−3 and 0.122 ± 0.002 c mmol GA dm^−3,0.057 ± 0.002 a mmol GA dm^−3
"CCCOC(=O)[C@@H]1CCCN1.COc1cc(/C=C/C(=O)O)ccc1O [PPr[FA], L-proline propyl ester ferulate]",0.061 ± 0.002 mmol GA dm^−3 and 0.061 ± 0.002 b mmol GA dm^−3,0.122 ± 0.002 mmol GA dm^−3 and 0.125 ± 0.001 c mmol GA dm^−3,0.082 ± 0.001 mmol GA dm^−3 and 0.082 ± 0.001 c mmol GA dm^−3
COc1cc(/C=C/C(=O)O)ccc1O [Ferulic acid],0.047 ± 0.006 a mmol GA dm^−3,0.097 ± 0.002 a mmol GA dm^−3,0.059 ± 0.003 a mmol GA dm^−3
"CCCOC(=O)CN.COc1cc(/C=C/C(=O)O)ccc1O [GPr[FA], glycine propyl ester ferulate]",0.051 ± 0.001 ab mmol GA dm^−3,0.115 ± 0.001 b mmol GA dm^−3,0.064 ± 0.001 b mmol GA dm^−3

# Where “and” joins values, the source holds several entries; their conditions need not be identical. Equal values may be shown once.
